From ChEMBL document CHEMBL3988442, “University of Dundee, Small-Polar-MMV Screening Library” (2021).

Chains of the proteins cited; added tags and fusions are not shown.
UniProt E9BF75, entry or part of it: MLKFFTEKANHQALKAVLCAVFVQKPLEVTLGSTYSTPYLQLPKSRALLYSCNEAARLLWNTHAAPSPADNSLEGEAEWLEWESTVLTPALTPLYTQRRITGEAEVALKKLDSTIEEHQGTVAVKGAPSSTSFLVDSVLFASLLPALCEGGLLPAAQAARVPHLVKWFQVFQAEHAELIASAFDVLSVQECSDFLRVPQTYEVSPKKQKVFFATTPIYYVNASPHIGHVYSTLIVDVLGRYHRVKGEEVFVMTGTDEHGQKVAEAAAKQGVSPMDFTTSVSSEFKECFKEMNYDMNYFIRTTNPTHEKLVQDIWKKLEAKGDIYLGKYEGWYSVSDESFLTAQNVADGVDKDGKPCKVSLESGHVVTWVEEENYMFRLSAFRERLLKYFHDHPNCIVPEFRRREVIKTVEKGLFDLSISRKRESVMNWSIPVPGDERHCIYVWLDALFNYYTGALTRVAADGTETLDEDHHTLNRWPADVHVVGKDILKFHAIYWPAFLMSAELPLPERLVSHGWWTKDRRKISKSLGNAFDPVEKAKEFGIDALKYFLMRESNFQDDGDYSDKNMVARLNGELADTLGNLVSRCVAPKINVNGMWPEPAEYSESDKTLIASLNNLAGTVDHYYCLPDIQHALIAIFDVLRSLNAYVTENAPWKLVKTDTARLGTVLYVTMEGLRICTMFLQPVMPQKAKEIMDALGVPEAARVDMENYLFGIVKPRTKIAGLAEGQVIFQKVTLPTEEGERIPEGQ

LdMetRS: 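Methionyl-tRNA synthetase (putative), Leishmania donovani (UniProt E9BF75). Primary screen of methionyl-tRNA synthetase; the read-out is not stated. The test concentration is not given. The values are filed as inhibition. About 68,000 compounds were tested under these conditions; 0.035% (about 24) showed 50% or more at least once.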
Mtb heat-shock: 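Assay on Mycobacterium tuberculosis, filed only as a heat shock assay from Cornell; the read-out is not stated. The concentration is filed as 10 mM, unlikely as a test dose, so the dose is not known. Direction is inferred from retests: higher values go with stronger inhibition. About 69,000 compounds were tested under these conditions; 1.4% (about 930) showed 50% or more at least once.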

Results are percentages, as filed.
The controls that fix the scale are not given in the record; negative values are as filed.
Compounds were drawn at random from those tested, without regard to their results.
A dash means the value is not listed here; it may have been measured.

SMILES	LdMetRS	Mtb heat-shock
CCN(CC)Cc1cc(=O)n2c(n1)CN(S(=O)(=O)C1CC1)CCC2	10.44%	-
O=C(Nc1ccccn1)N(CCO)Cc1ccccc1Br	19.67%	-20.5%
NC(=O)C1CCN(C(=O)c2cc(-n3cnnn3)ccc2Cl)CC1	14.73%	-11.45%
CCNC(=O)NC(=O)CSC(C)c1ccccc1F (stereo not drawn)	19.51%	-5.793%
CN(C)C(=O)CN1CCOCC2(CCN(c3ncc(F)cn3)CC2)C1.O=C(O)C(F)(F)F	-	1.257%
CN1CCN(C(=O)c2cc3sccc3n2Cc2ccc(Cl)cc2)CC1	11.26%	1.357%
Cc1cc(C(=O)NCCSC2CCCC2)no1	14.97%	-2.005%
CCCN1C[C@H]2CC[C@@H]1CN(C(=O)c1ccc(N(C)CCO)cc1)C2	12.93%	-
O=C(C1CCC1)N1CCCC(c2cccc(-n3ccnc3)n2)C1 (stereo not drawn)	10.59%	-9.445%
Cc1n[nH]cc1CNCC1(c2ccc3c(c2)OCO3)CCOCC1.Cl	-	-42.57%
Cn1cc(C2COC3(CCN(C(=O)c4cccc(O)c4)CC3)C2)cn1 (stereo not drawn)	15.42%	-4.729%
CCC(C)(CC(=O)OC)NC(=O)c1ccc(C(C)=O)cc1 (stereo not drawn)	8.273%	-19.08%
Cc1ccc2c(ccn2CC(=O)NC[C@@H]2CCCN3CCCC[C@H]23)c1	20.33%	-
CN1CCCC(Cc2nccnc2Cl)CC1 (stereo not drawn)	27.62%	-9.064%
CCC1=N[C@@]2(CC[C@@H]3CN(Cc4ccc(Cl)cc4)C[C@@H]32)C(=O)N1	9.764%	-
Cc1cc(C(=O)N2CCC3(CC2)C(=O)N(C)CCN3CC(C)C)c(C)o1.O=C(O)C(F)(F)F	-	23.07%
COCCC(=O)Nc1nc2c(OC)cc(F)cc2s1	9.218%	-1.667%
Cc1nc(O)cc(C2CCN(Cc3ccc(F)c(F)c3)C2)n1 (stereo not drawn)	11.53%	-
CCC(Nc1nc(CCN)nc2ccccc12)c1cccs1 (stereo not drawn)	20.96%	13.24%
Cc1ncccc1NC(=O)[C@@H]1CC[C@@H]2[C@@H](CCN2Cc2cnn(C)c2)O1	9.14%	-
Cc1ccc(CN2CCC3(CCCN(S(C)(=O)=O)C3)C2)o1 (stereo not drawn)	18.13%	3.179%
O=C(c1cccnc1)N1C[C@@H]2CC[C@H](C1)N(Cc1ncc[nH]1)C2	13.3%	-
CCn1cc(NC(=O)NCC(c2cccc(F)c2)N(C)C)cn1 (stereo not drawn)	18.37%	4.027%
Cc1nnc([C@@H]2C[C@H]3CN(C(=O)c4sccc4C)C[C@H]3O2)[nH]1	10.51%	-
CCc1n[nH]c(C2CN(C(=O)c3ccc4c(c3)CCCC4)CCO2)n1 (stereo not drawn)	14.92%	-1.367%
Clc1ccc(C2(CNC3=NCCN3)CC2)cc1	9.747%	-
NC(=O)C1CCN(CC(=O)NCCn2cc(Cl)cn2)CC1	10.63%	-18.74%
O=C(NCCNc1ccc(C(F)(F)F)cn1)c1ccc(Br)cc1F	2.778%	16.14%
Cc1nc(CN2C[C@@H]3COC[C@]3(COCC(=O)N(C)C)C2)cs1	10.66%	-
NC(=O)CNC1(c2ccc(Cl)cc2)CCCC1	14.73%	11.66%
O=C(O)C(F)(F)F.[H][C@@]12COC[C@]1(COCC(=O)N1CCCC1)CN(C1CCC1)C2	-	47.18%
Cc1noc(CN2CCCC2c2noc(C3CC3)n2)n1 (stereo not drawn)	5.828%	-6.462%
Cc1nc[nH]c1CN1C[C@@H]2OCCN(c3ncccn3)[C@@H]2C1	7.937%	-
COCCNC(=O)CN1CCCC1c1c(C)nn(C)c1Cl (stereo not drawn)	5.698%	3.405%
Cc1cc(N2CCC(n3cc(CCCO)nn3)CC2)ccn1	16.11%	1.349%
CN(Cc1ccsc1)C(=O)c1cc2c([nH]c1=O)CCC2	16.83%	14.56%
O=S(=O)(NCc1ccc(S(=O)(=O)N2CCCC2)s1)c1cc(Cl)cc(Cl)c1	0.9091%	-1.465%
Cn1cc(CN2CCCC3(COCCN(Cc4c[nH]nn4)C3)C2)cn1.O=C(O)C(F)(F)F.O=C(O)C(F)(F)F (stereo not drawn)	-	-9.259%
CN(CCNC(=O)c1scnc1Cl)c1ccccc1	14.69%	-3.302%
Cc1nc(CN2C(=O)CC[C@H]3[C@@H]2CCN3C(=O)c2ccsc2)cs1	17.17%	-
O=S(=O)(C1CC1)N1CC[C@H]2OCC[C@@]2(COc2ncccc2F)C1	7.216%	-
CC(=O)N(C)Cc1ncn2c1CN(C(=O)CC1CC1)CCC2	11.14%	-2.212%
CCS(=O)(=O)N1CCC2(CCCN(Cc3cc(OC)ccc3F)C2)C1 (stereo not drawn)	14.16%	24.11%
Cc1c(C)c(C)c2[nH]c(-c3cn(C4CCNCC4)nn3)nc2c1C	10.48%	10.02%
COc1ccc(-c2nc(CN3CCCC3Cn3cccn3)no2)cc1 (stereo not drawn)	13.36%	-8.193%
CCc1nc(CNC2CCCc3c2cnn3CC)cs1 (stereo not drawn)	1.761%	-7.865%
CCCc1cc(C(=O)N[C@@H]2CC[C@@H](N3CCOCC3)[C@@H]2O)no1	13.3%	2.795%
CN(Cc1ccnc2ccccc12)C1CCS(=O)(=O)C1.O=C(O)CC(O)(CC(=O)O)C(=O)O (stereo not drawn)	-	6.818%
COc1ccc(CNC(C)c2cnc3cc(C)nn3c2C)cc1 (stereo not drawn)	2.899%	13.61%
CO[C@@H]1CN(C)S(=O)(=O)[C@@]12CCN(Cc1ccccc1)C2	4.11%	-3.656%
CCn1cc(NC(=O)NCC(C)N(C)C2CC2)cn1 (stereo not drawn)	14.93%	0.04899%
CCN1CCCC1Cn1ccc2ccc(C(=O)OC)cc2c1=O (stereo not drawn)	17.39%	-43.45%
CCc1c(C(=O)O)nnn1-c1ccc(C)cc1C	7.068%	-5.512%
O=C(NCc1cccc(F)c1)c1cccc(C(=O)N2CCCC2)n1	17.73%	19.1%
CC(C)NC(=O)CN(C)C1CCN(c2ccc(Cl)cn2)CC1	8.681%	1.019%
CCn1nc(C)c2ncnc(N(C)C)c21	7.508%	22.39%
COc1ccc(CN2CCO[C@H]3[C@H](OCc4ccncc4)CC[C@@H]32)cc1	15.5%	-
Cc1cccc(CN2CC3C[C@]3(NC(=O)c3ccoc3)C2)n1 (stereo partly drawn)	12.32%	-0.8747%
COCCN1CC(O)CN(C(=O)c2ccc(SC)cc2)CC1=O (stereo not drawn)	0.8219%	35.01%
CCOc1ccc(C2CC(=O)NCc3nc(N)sc32)cc1CO (stereo not drawn)	10.48%	-9.558%
CC(C(=O)Nc1ncccn1)N1CCc2[nH]nc(C(F)(F)F)c2C1 (stereo not drawn)	25.27%	-22.04%
COc1ccc(C)cc1C1(CNc2cncc(Cl)n2)CCOCC1	10.86%	-7.883%
CSC1(CNC(=O)N(C)Cc2ccc(Cl)s2)CCOCC1	-9.946%	-2.339%

5 of the entries, repeated:

With NC(=O)C1CCN(C(=O)c2cc(-n3cnnn3)ccc2Cl)CC1 the screen gave LdMetRS: 14.73%; Mtb heat-shock: -11.45%.
With COc1ccc(C)cc1C1(CNc2cncc(Cl)n2)CCOCC1 the screen gave LdMetRS: 10.86%; Mtb heat-shock: -7.883%.
With CC(C)NC(=O)CN(C)C1CCN(c2ccc(Cl)cn2)CC1 the screen gave LdMetRS: 8.681%; Mtb heat-shock: 1.019%.
With CN1CCN(C(=O)c2cc3sccc3n2Cc2ccc(Cl)cc2)CC1 the screen gave LdMetRS: 11.26%; Mtb heat-shock: 1.357%.
With CN(C)C(=O)CN1CCOCC2(CCN(c3ncc(F)cn3)CC2)C1.O=C(O)C(F)(F)F the screen gave Mtb heat-shock: 1.257%.